In article doi:10.1101/2025.10.27.684836 (bioRxiv, 2025):
Like-named read-outs stand apart in the source and are kept apart here. No constants are given. Whether binding was seen depends on the method and setting. Binding seen in cells or lysates may run through a third protein. Some results given as binding are weak or reduced against the parent protein; the word gives no strength. For part of these data: Where a sequence is shown, tags or fusion partners need not be part of it. Each block holds one molecule with its values, some of them ahead of it.

Sequences of proteins named here, by UniProt entry; tags and fusion partners are left off. A change or cut given only in a name is not applied to a line headed by its entry.
UniProt Q8BX22, whole entry: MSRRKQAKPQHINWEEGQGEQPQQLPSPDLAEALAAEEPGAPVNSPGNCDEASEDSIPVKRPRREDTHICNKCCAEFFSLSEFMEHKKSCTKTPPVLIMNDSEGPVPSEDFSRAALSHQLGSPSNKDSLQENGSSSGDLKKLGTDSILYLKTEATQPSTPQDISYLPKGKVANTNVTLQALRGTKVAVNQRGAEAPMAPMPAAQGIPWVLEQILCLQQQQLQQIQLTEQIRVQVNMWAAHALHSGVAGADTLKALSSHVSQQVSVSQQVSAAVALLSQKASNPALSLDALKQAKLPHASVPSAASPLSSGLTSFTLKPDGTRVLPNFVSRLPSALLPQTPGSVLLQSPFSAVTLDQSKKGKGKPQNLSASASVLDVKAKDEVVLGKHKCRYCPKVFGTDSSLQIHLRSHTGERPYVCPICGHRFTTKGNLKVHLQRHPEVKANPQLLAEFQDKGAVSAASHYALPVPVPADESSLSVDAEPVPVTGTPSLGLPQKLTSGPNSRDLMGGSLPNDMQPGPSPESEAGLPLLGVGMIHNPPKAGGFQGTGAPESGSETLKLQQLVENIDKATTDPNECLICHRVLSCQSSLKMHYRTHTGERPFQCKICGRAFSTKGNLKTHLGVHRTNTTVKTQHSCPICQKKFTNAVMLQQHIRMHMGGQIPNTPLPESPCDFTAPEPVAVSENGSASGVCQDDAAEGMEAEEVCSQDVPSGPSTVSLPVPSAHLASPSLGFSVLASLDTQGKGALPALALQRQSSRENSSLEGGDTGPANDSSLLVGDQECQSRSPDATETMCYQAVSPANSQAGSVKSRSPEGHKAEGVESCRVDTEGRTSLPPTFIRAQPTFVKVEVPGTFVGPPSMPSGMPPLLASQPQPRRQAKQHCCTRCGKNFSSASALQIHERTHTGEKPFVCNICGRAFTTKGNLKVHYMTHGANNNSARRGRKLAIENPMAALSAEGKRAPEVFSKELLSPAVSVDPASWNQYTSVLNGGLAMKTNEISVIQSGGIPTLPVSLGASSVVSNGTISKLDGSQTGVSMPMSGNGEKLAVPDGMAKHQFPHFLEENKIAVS

Assays:
Test in all cases: co-IP
[1] = molecular target: T1, human SALL1 N-terminal fragment S1Nmut (I241P) with C-terminal GFP 3xFlag tags (human) (UniProt Q9NSC2)
T1 sequence: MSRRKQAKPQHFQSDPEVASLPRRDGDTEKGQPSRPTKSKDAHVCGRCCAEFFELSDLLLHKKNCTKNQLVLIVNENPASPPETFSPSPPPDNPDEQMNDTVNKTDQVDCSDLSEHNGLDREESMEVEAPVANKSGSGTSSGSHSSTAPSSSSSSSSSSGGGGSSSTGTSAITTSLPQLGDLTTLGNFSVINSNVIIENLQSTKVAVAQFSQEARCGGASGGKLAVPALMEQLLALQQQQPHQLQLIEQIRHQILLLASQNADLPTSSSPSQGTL

[2] = molecular target: 3xFlag-tagged SALL4 full-length (SALL4a) (mouse) (UniProt Q8BX22)
[3] = molecular target: 3xFlag-tagged SALL4 full-length (SALL4a) (mouse) (UniProt Q8BX22); remark: listed apart in the source
[4] = molecular target: SALL4 (endogenous, wild type) (mouse (endogenous in ESCs)) (UniProt Q8BX22)
[5] = molecular target: SALL4 QIDmut (endogenous, L221P) (mouse (endogenous in ESCs)) (UniProt Q8BX22)
[6] = molecular target: T1, human SALL1 N-terminal fragment S1Nmut (I241P) with C-terminal GFP 3xFlag tags (human); remark: listed apart in the source

binding [1]: no binding
Molecule: SALL4-mScarlet3 fusion protein (endogenously tagged) (from UniProt Q8BX22 1-1067)

binding [2]: binds
Molecule: HA-tagged SALL4 full-length (from UniProt Q8BX22 1-1067)

binding [3]: binds | binding [4]: binds | binding [5]: no binding | binding [6]: no binding
B1: SALL1 (endogenous) (protein, UniProt Q9ER74 1-1322)
chain: MSRRKQAKPQHFQSDPEVASLPRRDGDTEKGQPSRPTKSKDAHVCGRCCAEFFELSDLLLHKKSCTKNQLVLIVNESPASPAKTFPPGPSLNDPDDQMKDAANKADQEDCSDLSEPKGLDREESMEVEVPVATTTTTTTGGSGGSGGSTLSGVTNITTPSCHSGCSSGTSAITTSLPQLGDLTTLGNFSVINSNVIIENLQSTKVAVAQFSQEARCGGASGGKLLISTLMEQLLALQQQQIHQLQLIEQIRHQILLLASQSADLPAAPSIPSQGTLRTSANPLTTLSSHLSQQLAVAAGLAQSLASQSANISGVKQLPHVQLPQSSSGTSIVPPSGGTSPNMSIVTAAVPTPSSEKVASNAGASHVSSPAVSASSSPAFAISSLLSPESNPLLPQPTPANAVFPTPLPNIATTAEDLNSLSALAQQRKSKPPNVTAFEAKSTSDEAFFKHKCRFCAKVFGSDSALQIHLRSHTGERPFKCNICGNRFSTKGNLKVHFQRHKEKYPHIQMNPYPVPEHLDNVPTSTGIPYGMSIPSEKPVTSWLDTKPVLPTLTTSVGLPLPPTLPSLTPFIKTEEPAPIPISHSAASPQGSVKSDSGAPDLATRNPSGVPEEVEGSAVPPFGGKGEESNMASSAVPTAGNSTLNSPVADGGPGGTTFTNPLLPLMSEQFKAKFPFGGLLDSAQASETSKLQQLVENIDKKATDPNECIICHRVLSCQSALKMHYRTHTGERPFKCKICGRAFTTKGNLKTHYSVHRAMPPLRVQHSCPICQKKFTNAVVLQQHIRMHMGGQIPNTPVPDNYPESMESDTGSFDEKNFDDLDNFSDENMEECPEGSIPDTPKSADASQDSLSSSPLPLEMSSIAALENQMKMINAGLAEQLQASLKSVENGSMEGDVLTNDSSSVGGDMESQSAGSPAISESTSSMQALSPSNSTQEFHKSPGMEEKPQRVGPGEFANGLSPTPVNGGALDLTSSHAEKIIKEDSLGILFPFRDRGKFKNTACDICGKTFACQSALDIHYRSHTKERPFICTVCNRGFSTKGNLKQHMLTHQMRDLPSQLFEPSSNLGPNQNSAVIPANSLSSLIKTEVNGFVHVSPQDSKDAPTSHVPQGPLSSSATSPVLLPALPRRTPKQHYCNTCGKTFSSSSALQIHERTHTGEKPFACTICGRAFTTKGNLKVHMGTHMWNSTPARRGRRLSVDGPMTFLGGNPVKFPEMFQKDLAARSGSGDPSSFWNQYTAALSNGLAMKANEISVIQNGGIPPIPGSLGSGSSPISGLTGNVEKLGNSEPSAPLAGLEKMASSENGTNFRFTRFVEDSKEIVTS
